Test results as given in PubChem BioAssay AID504834 (National Center for Advancing Translational Sciences (NCATS), 2011).
About 22,000 (6.9%) of roughly 320,000 compounds were called active. Inconclusive means that the source gave no clear call. Such entries were picked first, then a sample of the others. The call rests on the fitted dose curve; in most records, active means well fitted inhibition curve with a large enough effect; inconclusive means small, poorly fitted or top-dose-only effect, or another doubt; inactive means no such curve, though single readings can be large or run the other way. Potencies of inconclusive entries are doubtful fits and often do not repeat.

test: Primary qHTS for delayed death inhibitors of the malarial parasite plastid, 96 hour incubation; settings: P. falciparum luciferase reporter growth; series mostly up to 28.7 µM
Method in brief: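 Erythrocytes infected with luciferase-expressing P. falciparum were dispensed at 2% hematocrit and 0.05% parasitemia (final), then incubated with compounds 96 hours at 37 C in 5% CO2. Luminescence after detection reagent addition reported growth.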
Potency means the concentration at half of the fitted maximal effect.

Compound	Potency
CC(C)CC(=O)c1c[nH]c(C(=O)NCc2ccccc2)c1	inactive
COC(=O)c1cccc(C(=O)N2CCCC(Nc3ccc4c(c3)OCCO4)C2)c1 (stereo unspecified)	inactive
Cn1c(=NC(=O)COc2ccccc2)sc2ccccc21	inactive
COC(=O)c1cc(S(=O)(=O)N2CCC(C)CC2)ccc1F	inactive
O=C(N/N=C/c1cccnc1)c1cccs1	inactive
Nn1cnnc1N/N=C/c1ccc(F)cc1	inactive
COC(=O)c1ccc(Sc2ccccn2)c([N+](=O)[O-])c1	inconclusive: 10.4 µM [inhibitor, single point]
CCC(=O)Nc1cc(C)c(NC(=O)c2ccco2)cn1	inactive
CN(C)C1=NCCN1CCc1cccc(F)c1	inactive
CC(=O)Nc1ccc2sc(C)nc2c1	inactive
COC(=O)CNC(=O)COC(=O)C(Cc1ccccc1)NC(=O)c1ccco1 (stereo unspecified)	inactive
CCOc1ccc(NC(=O)CN(C)c2ccc(S(=O)(=O)N(C(C)C)C(C)C)cn2)cc1OCC	inconclusive: 13.1 µM [inhibitor, partial curve, poor fit]
O=C1NN=C(c2ccc(Br)cc2)CC1c1ccc(Cl)cc1 (stereo unspecified)	inactive
Nc1ncnc(Nc2ccccc2)n1	inactive
Cc1ccc(/C=C2\CCCC3=C2NC(=S)NC3c2ccc(C)cc2)cc1 (stereo unspecified)	inconclusive: 16.5 µM [inhibitor, partial curve, poor fit]
Cc1ccc(NC2=NCC(=O)N2Cc2cccs2)cc1C	inconclusive: 13.1 µM [inhibitor, single point]
COc1ccc([C@@H]2[C@@H]3C(=O)N(C(C)(C)C)C(=O)[C@@H]3[C@]3(C)C(=O)N(c4ccc(C(F)(F)F)cc4)C(=O)N23)cc1	inconclusive: 18.5 µM [inhibitor, single point]
Cc1cccc(C(=O)NNC(=O)c2ccc(F)cc2)c1	inconclusive: 18.5 µM [inhibitor, single point]
COc1ccc(/C=C/C(=O)Nc2ccc(S(=O)(=O)Nc3onc(C)c3C)cc2)cc1OC	inconclusive: 20.8 µM [inhibitor, single point]
COc1ccc(NC(=O)CN(c2ccc([N+](=O)[O-])cc2)S(=O)(=O)c2ccccc2)c(OC)c1	inconclusive: 11.7 µM [inhibitor, single point]
COc1cccc(-n2c(Cc3cc(=O)[nH]c(=O)[nH]3)nnc2SCC(=O)NC2CCCCC2)c1	inconclusive: 18.5 µM [inhibitor, single point]
Cc1ccc(S(=O)(=O)ON2C(=O)c3cccc4cccc(c34)C2=O)cc1	inactive
CCOCCCNC(=O)C(c1ccc(Cl)cc1)N(Cc1cccs1)C(=O)c1ccccn1 (stereo unspecified)	inconclusive: 14.7 µM [inhibitor, single point]
O=C(Cc1ccccc1)Nc1ccccc1C(=O)NCC1CCCO1 (stereo unspecified)	active: 13.1 µM
Cc1ccc(CNC(=O)CC(C)S(=O)(=O)c2ccc3c(c2)NC(=O)C(C)S3)cc1 (stereo unspecified)	inconclusive: 10.4 µM [inhibitor, partial curve]
O=C(CCCc1cccs1)Nc1ccc2c(c1)OCO2	inactive

Compound	Potency
COc1ccccc1CNC(=O)C(NC(=O)Nc1ccccc1)C(C)C (stereo unspecified)	inactive
Cc1c(C(=O)NCCCN2CCCC2=O)oc2ccccc12	inconclusive: 18.5 µM [inhibitor, single point]
Cc1cc(C)c(-c2cc(NC(=O)COC(=O)c3ccc(CO)cc3)n(-c3ccccc3)n2)cc1C	inconclusive: 18.5 µM [inhibitor, single point]
O=C(O)/C=C/c1cnn(-c2ccccc2)c1	inactive
Cc1cccc(N(C(=O)Cc2cccs2)C(C(=O)NC2CCCC2)c2ccncc2)c1 (stereo unspecified)	inactive
CC(=O)Nc1cc([As](=O)(O)O)ccc1O	active: 10.7 µM
O=C(/C=C/c1c(Cl)cccc1Cl)Nc1ccncc1	inconclusive: 18.5 µM [inhibitor, single point]
Cc1c(C(c2cccc(O)c2)c2c(C)n(C)n(-c3ccccc3)c2=O)c(=O)n(-c2ccccc2)n1C	inconclusive: 13.1 µM [inhibitor, single point]
O=C(c1ccccc1)c1ccc(C(=O)N2CCN(c3ccc(F)cc3)CC2)o1	inactive
COC(=O)CCCC1=CC2=C(c3ccccc3)C(=O)C(C)(OC(=O)C3CCCC3)C(=O)C2=CN1C(CO)CO (stereo unspecified)	inconclusive: 18.5 µM [inhibitor, single point]
Cc1sc(NC(=O)COc2cccc(-n3cnnn3)c2)c(C#N)c1C	inactive
CC(C)CCSc1nc2ccccc2[nH]1	inactive
COc1ccccc1NC(=O)c1cc[n+](C)cc1	inconclusive: 10.4 µM [inhibitor, partial curve, poor fit]
COC(=O)C/C=C/[C@@H](C)[C@@H](/C=N/OC[C@H]1O[C@H](c2ccccc2)C=C[C@@H]1Oc1ccc(OC)cc1)NS(=O)(=O)c1ccc(C)cc1	active: 7.38 µM
COc1cccc(NC(=O)N2CCC3(CC2)OCCO3)c1	inconclusive: 0.37 µM [inhibitor, full curve, poor fit]
CCOc1cc(C(=O)Nc2ccccc2F)cc(Br)c1OCC	inconclusive: 18.5 µM [inhibitor, single point]
CCc1cc(C(=O)N2CCN(S(=O)(=O)c3cc(C)ccc3C)CC2)sc1C	inconclusive: 16.5 µM [inhibitor, partial curve, poor fit]
O=C(COC(=O)c1cccnc1)c1ccc(Cl)c(Cl)c1	inactive
COCCNC(=O)CC(c1ccccc1)c1ccccc1	active: 9.28 µM
COc1ccc(-c2c(-c3ccc(OC)c(C)c3O)n[nH]c2C)cc1	active: 11.7 µM
Cc1cc2cc(CN(Cc3ccco3)C(=O)NCc3ccccc3)c(=O)[nH]c2cc1C	inactive
CCn1c(SCC(=O)N(C)c2ccccc2)nc2c([nH]c3ccccc32)c1=O	inconclusive: 13.1 µM [inhibitor, partial curve, poor fit]
CCC(Oc1ccccc1)C(=O)N1CCN(C(=O)C(CC)Oc2ccccc2)CC1 (stereo unspecified)	inconclusive: 10.4 µM [inhibitor, single point]
C[C@@H](N)[C@@H](O)c1ccc(O)c(O)c1	active: 0.601 µM
CCOc1ccc(NS(=O)(=O)c2ccc3c(c2)n(C)c(=O)n3C)cc1	inconclusive: 18.5 µM [inhibitor, single point]
COc1ccc(/C=N/n2cnnc2SCc2ccc(OC)cc2)cc1	inactive

Compound	Potency
CCNC(=S)Nc1ccc(Cl)cc1Cl	inactive
COc1ccc(CCC(=O)N2CCN(S(=O)(=O)c3ccc(OC)cc3)CC2)cc1	inconclusive: 10.4 µM [inhibitor, single point]
CCn1c(=O)c2c(nc3n2CC(C)CN3CCc2ccccc2)n(C)c1=O (stereo unspecified)	active: 8.28 µM
O=C(c1cccc(Cl)c1)N1CCN(c2ccccn2)CC1	inconclusive: 10.4 µM [inhibitor, single point]
COc1ccc(C(=O)Nc2cccc(C(=O)N3CCN(C)CC3)c2)cc1	active: 0.131 µM
CCN(CC)C(=O)CSC1=C(C#N)C(c2ccco2)C(C(=O)OCCOC)=C(C)N1 (stereo unspecified)	inconclusive: 5.22 µM [inhibitor, partial curve, poor fit]
COc1cc(C(=O)OC(C)C(=O)NC2CCCCC2C)c([N+](=O)[O-])cc1OC (stereo unspecified)	inactive
COc1cccc(-c2cc(C(=O)N3CCN(S(=O)(=O)c4ccc(Br)cc4)CC3)[nH]n2)c1	active: 13.1 µM
COc1ccc(N(C(=O)COc2ccc(F)cc2)S(=O)(=O)c2ccc(C)cc2)cc1	inconclusive: 10.4 µM [inhibitor, single point]
Cc1ccc(C(=O)N/N=C2/NC(=O)CC(C(=O)Nc3ccccc3)S2)cc1 (stereo unspecified)	inconclusive: 13.1 µM [inhibitor, partial curve, poor fit]
COc1cc(OC)cc(C(=O)Nc2ncc3c(n2)CC(C)(C)CC3=O)c1	inconclusive: 18.5 µM [inhibitor, single point]
Cc1ccc(OCCC(=O)OC(C)C(=O)Nc2c(C)n(C)n(-c3ccccc3)c2=O)cc1 (stereo unspecified)	inactive
Cc1ccc(S(=O)(=O)NCC(c2ccco2)S(=O)(=O)c2ccccc2)cc1 (stereo unspecified)	inconclusive: 13.1 µM [inhibitor, single point]
Cc1cc2oc(=O)cc(CN3CCC(C)CC3)c2c(C)c1Cl	inactive
O=c1oc2ccccc2cc1-c1cn(-c2ccccc2)c(=S)[nH]1	inconclusive: 9.28 µM [inhibitor, partial curve, poor fit]
COc1cccc(C(=O)Nc2nnc(Cc3ccc(OC)c(OC)c3)s2)c1	inactive
Cc1onc(-c2c(Cl)cccc2Cl)c1C(=O)c1c[nH]c(C(=O)NCCCN2CCOCC2)c1	inconclusive: 0.262 µM [inhibitor, full curve]
O=C(CSc1nnc(-c2cc3ccccc3cc2O)n1Cc1ccco1)N1CCc2ccccc2C1	active: 1.65 µM
CCCC(=O)OC1CC(C)N(C(=O)c2ccccc2)c2ccc(C)cc21 (stereo unspecified)	inconclusive: 10.4 µM [inhibitor, partial curve, poor fit]
CCC(C)(C)NC(=O)c1ccccc1Oc1ccccc1	inactive
O=C(O)CCSc1nnc(-c2ccc3c(c2)OCO3)o1	inconclusive: 0.738 µM [inhibitor, full curve, poor fit]
O=C1CN(C(=O)c2cccc(Br)c2)c2ccccc2N1	inactive
Cc1ccc(N(CC(=O)NCCSc2ccccn2)S(=O)(=O)c2ccc(F)cc2)cc1	inconclusive: 4.15 µM [inhibitor, single point]
CCC(c1nnnn1C(C)(C)CC)N(CCCO)Cc1cc2cc(C)cc(C)c2[nH]c1=O (stereo unspecified)	active: 10.4 µM

Look-ups from the list.
COc1cccc(C(=O)Nc2nnc(Cc3ccc(OC)c(OC)c3)s2)c1 | Potency: inactive
COc1ccc(C(=O)Nc2cccc(C(=O)N3CCN(C)CC3)c2)cc1 | Potency: active: 0.131 µM
CCOc1ccc(NS(=O)(=O)c2ccc3c(c2)n(C)c(=O)n3C)cc1 | Potency: inconclusive: 18.5 µM [inhibitor, single point]

3 entries already listed, sorted by length of the SMILES, smallest number first:
Compound	Potency
CCNC(=S)Nc1ccc(Cl)cc1Cl	inactive
CCC(C)(C)NC(=O)c1ccccc1Oc1ccccc1	inactive
CCC(c1nnnn1C(C)(C)CC)N(CCCO)Cc1cc2cc(C)cc(C)c2[nH]c1=O (stereo unspecified)	active: 10.4 µM
